# Results as given in patent US8987242B2, “Morpholinone compounds as factor IXA inhibitors” (Merck Sharp & Dohme Corp., priority 2008, dated 2015).
# The chains behind the UniProt entries cited, without tags or fusion partners. Residues count along the entry.
# UniProt P00740, 227-461 limits assumed: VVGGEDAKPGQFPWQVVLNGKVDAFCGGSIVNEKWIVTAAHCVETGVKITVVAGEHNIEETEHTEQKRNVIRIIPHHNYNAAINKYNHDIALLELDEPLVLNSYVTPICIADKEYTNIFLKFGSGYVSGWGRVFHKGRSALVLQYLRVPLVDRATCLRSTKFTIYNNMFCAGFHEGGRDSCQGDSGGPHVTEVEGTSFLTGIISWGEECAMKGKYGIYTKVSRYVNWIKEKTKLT
# UniProt P00740, 47-191 partner limits assumed: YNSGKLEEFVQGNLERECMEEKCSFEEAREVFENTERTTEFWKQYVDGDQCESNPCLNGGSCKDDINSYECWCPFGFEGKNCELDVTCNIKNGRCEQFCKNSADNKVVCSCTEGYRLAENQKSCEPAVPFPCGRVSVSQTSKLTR
# Target: human factor IXa (Homo sapiens (Human), UniProt P00740)
# Test: Determination of inhibitory activity against factor IXa (SPECTROFLUOR FIXa fluorogenic substrate enzyme assay)
# Conditions: read-out: Factor IXa enzyme assay IC50; human factor IXa 2.0 μg/ml, SPECTROFLUOR FIXa 100 μM, 60 minutes at room temperature, pH 8.0; tested form: HCl
row,SMILES,IC50 [nM]
1,N=C(N)c1ccc(NC(=O)[C@H](O)[C@H]2OCCN(c3ccc4[nH]c(=O)ccc4c3)C2=O)cc1F,9.3
2,COC(=O)CN1C(=O)CCc2ccc(N3CCO[C@H]([C@@H](O)C(=O)Nc4ccc5c(c4)CNC5=N)C3=O)cc21,9
3,N=C1NCc2cc(NC(=O)[C@H](O)[C@H]3OCCN(c4ccc5[nH]c(=O)ccc5c4)C3=O)ccc21,12
4,N=C1NCc2cc(NC(=O)[C@H](O)[C@H]3OCCN(c4ccc5ccc(=O)n(CC(=O)O)c5c4)C3=O)ccc21,9.6

# Structures were worked out from names or drawings and are uncertain.
